The experiment deals with HLP_(PM19-ΔTM) fused to the Gal4 binding domain ('Candidatus Phytoplasma mali' strain PM19). The experiment can be described thus: two-hybrid; library-scale screen, Matchmaker Gold; bait BD-HLP_PM19 134-428 (pGBKT7), prey normalized A. thaliana library (pGADT7); selection on aureobasidin A, alpha-galactosidase, media lacking histidine and adenine.

These are yes or no findings as the source states them, for the method shown. Binding can be weak; no strength is given. Sequences can lack the tags named with a protein.

B1: A. thaliana translocase of chloroplast 33 fused to the Gal4 activation domain (protein, UniProt O23680 1-297)
chain: MGSLVREWVGFQQFPAATQEKLIEFFGKLKQKDMNSMTVLVLGKGGVGKSSTVNSLIGEQVVRVSPFQAEGLRPVMVSRTMGGFTINIIDTPGLVEAGYVNHQALELIKGFLVNRTIDVLLYVDRLDVYRVDELDKQVVIAITQTFGKEIWCKTLLVLTHAQFSPPDELSYETFSSKRSDSLLKTIRAGSKMRKQEFEDSAIAVVYAENSGRCSKNDKDEKALPNGEAWIPNLVKAITDVATNQRKAIHVDKKMVDGSYSDDKGKKLIPLIIGAQYLIVKMIQGAIRNDIKTSGKPL
With B1, the binding result is “binds”.

Source of the values: article PMC12113829.
